Reference: the RNAGym collection of RNA variant scans (doi:10.1126/science.aae0568)
This sample is rich in variants without activity.

B1: tRNA (parent)
chain: GUUCCGUUGGCGUAAUGGUAACGCGUCUCCCUCCUAAGGAGAAGACUGCGGGUUCGAGUCCCGUACGGAACG

Variants of: B1
Assay: yeast fitness relative to wild type (ratio to wild type); higher = fitter; tRNA-Arg(CCU), competitive growth, 37 C, YPD
Outline: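 Variants of the tRNA-Arg(CCU) gene, chemically synthesised with a 3% per-site mutation rate at 69 sites, were placed at the native genomic locus in Saccharomyces cerevisiae. The pooled strains were competed in YPD at 37°C for 24 hours in six parallel replicates. Gene amplicons from the start population and from each end population were read by 100-nucleotide paired-end sequencing. Darwinian fitness relative to wild type came from changes in genotype frequencies; genotypes needed ≥ 100 starting reads, and estimates < 0.5 were set to 0.5.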

Variant	yeast fitness
C5A U19G G50A	≤ 0.5
C5A U26G C60G C61U	≤ 0.5
C5A U28G G44A	≤ 0.5
C5G A14U G18A A21U	≤ 0.5
C5G A15C C29A	≤ 0.5
C5G A15C C62U	≤ 0.5
C5G A15G A42C C60A	≤ 0.5
C5G A15G C29U A40U A42G U47A	≤ 0.5
C5G A15U A20G G58A G67A	≤ 0.5
C5G A20U G38C G48A	≤ 0.5
C5G A21C C24U	≤ 0.5
C5G A21G A65C C66U	≤ 0.5
C5G A21G C33A G68C A69U	≤ 0.5
C5G A21G C49A U54C A65G	≤ 0.5
C5G A36C A42G C61G A70U	≤ 0.5
C5G A36C A43U	≤ 0.5
C5G A36G A43U	0.549
C5G A36G C55U A69U	≤ 0.5
C5G A36U G41A	≤ 0.5
C5G A37C G38A G52A A69C	≤ 0.5
C5G A42U A45G A69C	≤ 0.5
C5G A43U G63A	≤ 0.5
C5G C11A A15G G18A C30G C62G A69C	≤ 0.5
C5G C11G A14C U35G A45C A57C C62G G68C	≤ 0.5

Variant	yeast fitness
C5G C11U A42U G68A	≤ 0.5
C5G C22A U28C A40U U53C C60A	≤ 0.5
C5G C22U U26G U32A U35A A69C	≤ 0.5
C5G C22U U32G C34U A40G C66U	≤ 0.5
C5G C27A G58C	≤ 0.5
C5G C30G A69C	≤ 0.5
C5G C30U A36U G51C	≤ 0.5
C5G C30U C49U U54A	≤ 0.5
C5G C31G	0.824
C5G C33A A36C	≤ 0.5
C5G C34A G39C G52A G58A G63A	≤ 0.5
C5G C34G C62G G63A	≤ 0.5
C5G C49G A65C	≤ 0.5
C5G G6C A15G C62U A65C C66U	≤ 0.5
C5G G6C C49U G51A	≤ 0.5
C5G G9C A21G C30G A36G C46G A57U	≤ 0.5
C5G G10A C11G U16G C33G C66U	≤ 0.5
C5G G10C A37U G38A G58C	≤ 0.5
C5G G10C C46G C66G A69C	≤ 0.5
C5G G12C A65C	≤ 0.5
C5G G17C C31U G44A C46A	≤ 0.5
C5G G25A A42G U54G C55U A70C	≤ 0.5
C5G G25A C30A C31A C49U C55G	≤ 0.5
C5G G25A G48A	0.724

Variant	yeast fitness
C5G G41A A43G C60U A70C	≤ 0.5
C5G G41C A42U C66U	≤ 0.5
C5G G48C G51A A69U	≤ 0.5
C5G G50A	0.835
C5G G51A C60A	≤ 0.5
C5G G63C A69C	≤ 0.5
C5G U7A A15C A57G	≤ 0.5
C5G U7G A57G	≤ 0.5
C5G U7G A69C	≤ 0.5
C5G U13A C30U	0.56
C5G U16G C29A	≤ 0.5
C5G U19G C22U A43C G51A	≤ 0.5
C5G U26C C60G C61G	≤ 0.5
C5G U26G C55G A65C	≤ 0.5
C5G U26G G38C G51C	≤ 0.5
C5G U28G C30G A40C A42U	≤ 0.5
C5G U32A G48C C62U	≤ 0.5
C5G U53A G58A C66U	≤ 0.5
C5G U53C A65C	≤ 0.5
C5U A14G C24A G25A C31A	≤ 0.5
C5U A14G U26C	0.662
C5U A14U G41C	≤ 0.5
C5U A15C C29A G68C	≤ 0.5
C5U A15C U16C C27U A42C	≤ 0.5

Variant	yeast fitness
C5U A15G A20G C27G C33U	≤ 0.5
C5U A15G C27A C46A C55A	≤ 0.5
C5U A15G C30U A40U A70C	≤ 0.5
C5U A15U C30G C33G A40G A43U	≤ 0.5
C5U A15U C34U A37G A65C	≤ 0.5
C5U A20C U32C A40U G50A G52A A70U	≤ 0.5
C5U A20U C22U G56C	≤ 0.5
C5U A20U C49G A69C	≤ 0.5
C5U A21C C31G C60G	≤ 0.5
C5U A21G U32C A65U G68A	≤ 0.5
C5U A21U C30G G68A	≤ 0.5
C5U A21U C55U	≤ 0.5
C5U A21U U28C C30G A70U	≤ 0.5
C5U A37C A40C G51A C55A G58A G68A	≤ 0.5
C5U A37C C46U U53C	≤ 0.5
C5U A42C G67U	0.69
C5U A45C A70G	0.76
C5U A70U	0.98
C5U C11A A43U C66U	0.621
C5U C11A A45U A69U	≤ 0.5
C5U C11A C24G C27G A36U G38C C60G C66A	0.522
C5U C11A U26A C29U C30A C31U C60U C61U	≤ 0.5
C5U C11U A14U	0.57
C5U C11U A36U G56C	≤ 0.5

Variant	yeast fitness
C5U C11U A37G G56A	≤ 0.5
C5U C22A C29U G51C	≤ 0.5
C5U C22A C31G C34U U54C	≤ 0.5
C5U C22G C27U	0.612
C5U C22G C29A A45U G58C	≤ 0.5
C5U C22U C27G A70G	≤ 0.5
C5U C22U C33U C55A C61A	≤ 0.5
C5U C22U G48C	≤ 0.5
C5U C24G G39A A43C	≤ 0.5
C5U C24U G41C	≤ 0.5
C5U C27G C31G G41C G50A C61G	≤ 0.5
C5U C27G C33G A42C C61G	≤ 0.5
C5U C27G G68C	0.577
C5U C31G C49U C61G	≤ 0.5
C5U C31U A37C A43U G50C A57G	≤ 0.5
C5U C31U C61G	0.549
C5U C34A U53A U64G C66U	≤ 0.5
C5U G6C A21U G38C G39A A43C C60G A65C	≤ 0.5
C5U G6C C11A C31G A36C C49U U59A	≤ 0.5
C5U G6C G44C U59C	≤ 0.5
C5U G10C C30A A36U A42C	≤ 0.5
C5U G12A A40U A45G C60A G63A	≤ 0.5
C5U G12C A21C C24A G41C A65U	≤ 0.5
C5U G17C A21U A40G U47G G48C C60G	≤ 0.5

Variant	yeast fitness
C5U G17C C29A C46G G56A	≤ 0.5
C5U G18C C29U	≤ 0.5
C5U G23C U32C A42G U54A	≤ 0.5
C5U G23C U32C U54A	≤ 0.5
C5U G25C U35C A42U C62G	≤ 0.5
C5U G25U U64G	≤ 0.5
C5U G41A	0.906
C5U G44A	1.08
C5U U7A G23A C33G	≤ 0.5
C5U U7C U26C U28C C29G C34A	0.659
C5U U8C A14U C30U G39C C60A A70C	≤ 0.5
C5U U8C A21G G23A	≤ 0.5
C5U U16G A40G A42U G52A	≤ 0.5
C5U U32G A45C C49A	≤ 0.5
C5U U35C	0.811
C5U U35C A36U G38A C46A U54A	≤ 0.5
G6A A14C A42U G56A G63C U64C	≤ 0.5
G6A A14U C27U G67A	≤ 0.5
G6A A14U U59G A65U	≤ 0.5
G6A A15C A36U A65C	≤ 0.5
G6A A15G G58A G68C	≤ 0.5
G6A A15U C22A	≤ 0.5
G6A A20C C31U C33G	≤ 0.5
G6A A20G C30G U35A G50A	≤ 0.5

Variant	yeast fitness
G6A A21G C62G A65U	≤ 0.5
G6A A21U U26C G39A A45C	≤ 0.5
G6A C11A U19A	0.53
G6A C11A U19A A69G	≤ 0.5
G6A C11A U32A C34G	≤ 0.5
G6A C11G C30U C46G G58C	≤ 0.5
G6A C22G G25A U47A A70C	≤ 0.5
G6A C22U A40G A43U C46G C49G C62U	≤ 0.5
G6A C24U A37U A40U	≤ 0.5
G6A C24U G39A G41C	≤ 0.5
G6A C24U G58A	0.67
G6A C24U U32G A40U U64G	≤ 0.5
G6A C27A A42C C46U C62U	≤ 0.5
G6A C27A C30U G41C A43U	≤ 0.5
G6A C27G A40U	≤ 0.5
G6A C27G G38C G63A A65C	≤ 0.5
G6A C29G U32C A69C	≤ 0.5
G6A C30U G56C	≤ 0.5
G6A C31A C33U G41A C55A	≤ 0.5
G6A C31G A70C	0.553
G6A C33G C34G G56A C61A	≤ 0.5
G6A C34A A40U C55U U59A A70U	≤ 0.5
G6A C49U G58A	0.654
